Laboratory results from patent publication US12351591B2, “KRas inhibitors” (ELI LILLY AND COMPANY, priority 2022, dated 2025).
Some entries share one result that the patent states for a list of compounds.

Amino acid sequences for entries named in this document (tags omitted). Residues count along the entry.
UniProt P01116, 1-188 isoform P01116-2: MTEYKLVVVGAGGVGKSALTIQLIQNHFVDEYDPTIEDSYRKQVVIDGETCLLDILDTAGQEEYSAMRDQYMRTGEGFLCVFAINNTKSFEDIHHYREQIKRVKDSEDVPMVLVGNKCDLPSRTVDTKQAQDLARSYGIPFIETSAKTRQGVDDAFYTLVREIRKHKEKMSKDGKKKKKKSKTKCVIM
UniProt P01116, 1-188 isoform P01116-2 G12D: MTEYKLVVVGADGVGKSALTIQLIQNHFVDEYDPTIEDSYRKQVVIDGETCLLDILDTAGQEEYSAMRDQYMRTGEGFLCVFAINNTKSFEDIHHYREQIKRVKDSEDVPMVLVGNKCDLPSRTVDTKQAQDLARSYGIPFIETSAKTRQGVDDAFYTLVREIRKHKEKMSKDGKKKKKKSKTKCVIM
UniProt P01116, 1-188 isoform P01116-2 G12C: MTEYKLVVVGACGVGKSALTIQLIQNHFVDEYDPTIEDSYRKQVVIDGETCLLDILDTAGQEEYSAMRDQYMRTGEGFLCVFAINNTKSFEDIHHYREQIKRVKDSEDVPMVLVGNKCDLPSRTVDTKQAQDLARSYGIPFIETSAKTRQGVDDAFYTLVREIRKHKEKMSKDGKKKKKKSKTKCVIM

How the values were obtained:
NRAS = NRAS (Homo sapiens, UniProt P01111); assay: Cellular Phospho-ERK AlphaLISA, MEF-NRAS cells (RAS-less MEFs expressing NRAS only); assay type: cell-based, mouse; conditions: 2 h, read-out: relative IC50, phospho-ERK, MEF-NRAS
KRAS WT = biological target: T1, KRAS WT (Homo sapiens, UniProt P01116); assay: Cellular Phospho-ERK AlphaLISA, MKN45 cells (WT KRAS amplification); assay type: cell-based; conditions: cells expressing KRAS WT, 2 h; read-out: relative IC50, reduction of phosphorylated ERK-1/2 in cells expressing KRAS WT
T1 construct: or amplification of the KRAS gene; endogenous in cells; host or cells: MKN45

KRas G12D [1] = biological target: T2, KRas G12D (Homo sapiens, UniProt P01116, G12D); assay: Cellular Phospho-ERK AlphaLISA, HPAC cells (KRAS G12D); assay type: cell-based; conditions: 2 h, read-out: relative IC50, reduction of phosphorylated ERK-1/2 in cells expressing KRAS G12D
T2 construct: host or cells: PANC-1

HRAS = HRAS (Homo sapiens, UniProt P01112); assay: Cellular Phospho-ERK AlphaLISA, MEF-HRAS cells (RAS-less MEFs expressing HRAS only); assay type: cell-based, mouse; conditions: 2 h, read-out: relative IC50, phospho-ERK, MEF-HRAS
KRas G12D [2] = biological target: T2, KRas G12D; assay: PANC-1 Cellular Active RAS GTPase ELISA (KRas G12D Mutation); assay type: cell-based; conditions: PANC-1 cells, 2 hours; read-out: relative IC50, inhibition of constitutive RAS GTPase activity (KRas G12D mutant)
KRAS G12C = biological target: T3, KRAS G12C (Homo sapiens, UniProt P01116, G12C); assay: Cellular Phospho-ERK AlphaLISA, NCI-1373 cells (KRAS G12C); assay type: cell-based; conditions: 2 h, read-out: relative IC50, reduction of phosphorylated ERK-1/2 in cells expressing KRAS G12C
T3 construct: endogenous in cells; host or cells: NCI-1373

Row | Structure (SMILES) | IC50 (NRAS) [nM] | IC50 (KRAS WT) [nM] | IC50 (KRas G12D [1]) [nM] | IC50 (HRAS) [nM] | IC50 (KRas G12D [2]) [nM] | IC50 (KRAS G12C) [nM]
1 | CN1CC2CC(C1)N2c1nc(OC[C@@]23CCCN2C[C@H](F)C3)nc2c(F)c(-c3c(F)ccc4sc(N)c(C#N)c34)c3c(c12)COC3 (single isomer, unassigned) [Example 95] | > 2000 | < 500 | < 500 | > 2000 | < 100 | < 500
2 | CN(C)C(=O)CCN1CC2CCC(C1)N2c1nc(OC[C@@]23CCCN2C[C@H](F)C3)nc2c(F)c(-c3c(F)ccc4sc(N)c(C#N)c34)c3c(c12)COC3 (single isomer, unassigned) [Example 190] | > 2000 | < 500 | < 500 | > 2000 | < 100 | < 500
3 | N#Cc1c(N)sc2c(F)cnc(-c3c4c(c5c(N6C7CCC6CN(CCCO)C7)nc(OC[C@@]67CCCN6C[C@H](F)C7)nc5c3F)COC4)c12 [Example 218, 2-Amino-7-fluoro-4-[5-fluoro-3-[[(2R,8S)-2-fluoro-1,2,3,5,6,7-hexahydropyrrolizin-8-yl]methoxy]-1-[3-(3-hydroxypropyl)-3,8-diazabicyclo[3.2.1]octan-8-yl]-7,9-dihydrofuro[3,4-f]quinazolin-6-yl]thieno[3,2-c]pyridine-3-carbonitrile] | > 2000 | < 500 | < 500 | > 2000 | < 100 | < 500
4 | C[C@H](O)CN1CC2CCC(C1)N2c1nc(OC[C@@]23CCCN2C[C@H](F)C3)nc2c(F)c(-c3cccc4sc(N)c(C#N)c34)c3c(c12)COC3 [Example 56, 2-Amino-4-[5-fluoro-3-[[(2R,8S)-2-fluoro-1,2,3,5,6,7-hexahydropyrrolizin-8-yl]methoxy]-1-[3-[(2S)-2-hydroxypropyl]-3,8-diazabicyclo[3.2.1]octan-8-yl]-7,9-dihydrofuro[3,4-f]quinazolin-6-yl]benzothiophene-3-carbonitrile] | > 2000 | < 500 | < 500 | > 2000 | < 100 | < 500
5 | N#Cc1c(N)oc2ccc(F)c(-c3c4c(c5c(N6C7CCC6CN(CCCO)C7)nc(OC[C@@]67CCCN6C[C@H](F)C7)nc5c3F)COC4)c12 (single isomer, unassigned) [Example 114] | > 2000 | < 500 | < 500 | > 2000 | < 100 | < 500
6 | N#Cc1c(N)sc2ccc(F)c(-c3c4c(c5c(N6C7CCC6CN(C[C@H](O)C(F)(F)F)C7)nc(OC[C@@]67CCCN6C[C@H](F)C7)nc5c3F)COC4)c12 (single isomer, unassigned) [Example 164] | > 2000 | < 500 | < 500 | > 2000 |  | < 500
7 | CO[C@@H]1C[C@@H](COc2nc(N3C4CCC3CN(C[C@@H](C)O)C4)c3c4c(c(-c5c(F)ccc6sc(N)c(C#N)c56)c(F)c3n2)COC4)N(C)C1 (single isomer, unassigned) [Example 243] | > 2000 |  | < 500 | > 2000 | < 100 | < 500
8 | N#Cc1c(N)sc2c(F)ccc(-c3c4c(c5c(N6C7CCC6CN(C[C@H]6CCO6)C7)nc(OC[C@@]67CCCN6C[C@H](F)C7)nc5c3F)COC4)c12 (single isomer, unassigned) [Example 103] | > 2000 | < 500 | < 500 | > 2000 |  | < 500
9 | CN1CC2CC(C1)N2c1nc(OC[C@@H]2CCCN2C)nc2c(F)c(-c3c(F)ccc4sc(N)c(C#N)c34)c3c(c12)COC3 (single isomer, unassigned) [Example 152] | > 2000 |  | < 500 | > 2000 | < 100 | < 500
10 | N#Cc1c(N)sc2cccc(-c3cc4nc(OC[C@@]56CCCN5C[C@H](F)C6)nc(N5C6CCC5CNC6)c4c4c3COC4)c12 [Example 68, 2-Amino-4-[1-(3,8-diazabicyclo[3.2.1]octan-8-yl)-3-[[(2R,8S)-2-fluoro-1,2,3,5,6,7-hexahydropyrrolizin-8-yl]methoxy]-7,9-dihydrofuro[3,4-f]quinazolin-6-yl]benzothiophene-3-carbonitrile] | > 2000 |  | < 500 | > 2000 | < 100 | < 500
11 | C[C@@H](O)CN1CC2CCC(C1)N2c1nc(OC[C@@]23CCCN2C[C@H](F)C3)nc2c(F)c(-c3cccc4sc(N)c(C#N)c34)c3c(c12)COC3 (single isomer, unassigned) [Example 161] | > 2000 | < 500 | < 500 | > 2000 |  | < 500
12 | COCCN1CC2CCC(C1)N2c1nc(OC[C@@]23CCCN2C[C@H](F)C3)nc2c(F)c(-c3cccc4sc(N)c(C#N)c34)c3c(c12)COC3 [Example 212, 2-Amino-4-[5-fluoro-3-[[(2R,8S)-2-fluoro-1,2,3,5,6,7-hexahydropyrrolizin-8-yl]methoxy]-1-[3-(2-methoxyethyl)-3,8-diazabicyclo[3.2.1]octan-8-yl]-7,9-dihydrofuro[3,4-f]quinazolin-6-yl]benzothiophene-3-carbonitrile] | > 2000 |  | < 500 | > 2000 | < 100 | < 500
13 | C[C@@H](O)CN1CC2CCC(C1)N2c1nc(OC[C@@]23CCCN2C[C@H](F)C3)nc2c(F)c(-c3cccc4sc(N)c(C#N)c34)c3c(c12)COC3 [Example 55, 2-Amino-4-[5-fluoro-3-[[(2R,8S)-2-fluoro-1,2,3,5,6,7-hexahydropyrrolizin-8-yl]methoxy]-1-[3-[(2R)-2-hydroxypropyl]-3,8-diazabicyclo[3.2.1]octan-8-yl]-7,9-dihydrofuro[3,4-f]quinazolin-6-yl]benzothiophene-3-carbonitrile] | > 2000 |  | < 500 | > 2000 | < 100 | < 500
14 | CN1CC2CCC(C1)N2c1nc(OC[C@@]23CCCN2C[C@H](F)C3)nc2c(F)c(-c3cccc4sc(N)c(C#N)c34)c3c(c12)COC3 [Example 24] | > 2000 |  | < 500 | > 2000 | < 100 | < 500
15 | N#Cc1c(N)oc2ccc(F)c(-c3c4c(c5c(N6C7CCC6CNC7)nc(OC[C@@]67CCCN6C[C@H](F)C7)nc5c3F)COC4)c12 (single isomer, unassigned) [Example 62] |  | < 500 |  |  | < 100 | 
16 | CN1CCC(F)(COc2ncc3c4c(c(-c5ncc(F)c6sc(N)c(C#N)c56)c(F)c3n2)COC4)C1 (single isomer, unassigned) [Example 347, 2-Amino-7-fluoro-4-[5-fluoro-3-[(3-fluoro-1-methyl-pyrrolidin-3-yl)methoxy]-7,9-dihydrofuro[3,4-f]quinazolin-6-yl]thieno[3,2-c]pyridine-3-carbonitrile] |  | < 500 |  |  |  | 
17 | CN1CC2CC(C1)N2c1nc(OC[C@@]23CCCN2C[C@H](F)C3)nc2c(F)c(-c3ncc(F)c4sc(N)c(C#N)c34)c3c(c12)COC3 [Example 343, 2-Amino-7-fluoro-4-[5-fluoro-3-[[(2R,8S)-2-fluoro-1,2,3,5,6,7-hexahydropyrrolizin-8-yl]methoxy]-1-(3-methyl-3,6-diazabicyclo[3.1.1]heptan-6-yl)-7,9-dihydrofuro[3,4-f]quinazolin-6-yl]thieno[3,2-c]pyridine-3-carbonitrile] | > 2000 |  | < 500 | > 2000 | < 100 | < 500
